Results are given in words; binding and its absence hold for the method and conditions named. In cells and extracts the contact can be indirect. These calls come from enrichment with a bait or labelling near it, and not all partners need be listed.
Molecular target: METTL3 (human (endogenous in A549)) (UniProt Q86U44)
Assay: affinity purification with mass spectrometry; immunoprecipitation with anti-METTL3 from A549 cells, IgG group as control, two replicates each; qualitative protein profiling by mass spectrometry

Sequences of proteins named here, by UniProt entry; tags and fusion partners are left off.
UniProt Q86U44: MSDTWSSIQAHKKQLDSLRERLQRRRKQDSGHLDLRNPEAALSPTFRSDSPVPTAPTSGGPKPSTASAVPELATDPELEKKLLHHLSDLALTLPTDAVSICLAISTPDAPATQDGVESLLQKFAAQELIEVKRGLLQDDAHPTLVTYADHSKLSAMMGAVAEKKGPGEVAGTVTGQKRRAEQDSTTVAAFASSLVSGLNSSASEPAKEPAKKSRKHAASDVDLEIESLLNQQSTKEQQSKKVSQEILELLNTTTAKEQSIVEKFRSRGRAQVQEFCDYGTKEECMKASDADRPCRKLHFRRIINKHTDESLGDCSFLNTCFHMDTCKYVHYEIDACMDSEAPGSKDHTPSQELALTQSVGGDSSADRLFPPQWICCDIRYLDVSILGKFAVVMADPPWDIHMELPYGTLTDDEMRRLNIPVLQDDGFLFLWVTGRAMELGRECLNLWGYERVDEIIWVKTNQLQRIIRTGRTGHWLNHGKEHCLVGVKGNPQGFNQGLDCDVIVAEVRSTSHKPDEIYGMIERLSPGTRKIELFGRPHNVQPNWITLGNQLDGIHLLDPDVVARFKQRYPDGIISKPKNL
UniProt Q13347: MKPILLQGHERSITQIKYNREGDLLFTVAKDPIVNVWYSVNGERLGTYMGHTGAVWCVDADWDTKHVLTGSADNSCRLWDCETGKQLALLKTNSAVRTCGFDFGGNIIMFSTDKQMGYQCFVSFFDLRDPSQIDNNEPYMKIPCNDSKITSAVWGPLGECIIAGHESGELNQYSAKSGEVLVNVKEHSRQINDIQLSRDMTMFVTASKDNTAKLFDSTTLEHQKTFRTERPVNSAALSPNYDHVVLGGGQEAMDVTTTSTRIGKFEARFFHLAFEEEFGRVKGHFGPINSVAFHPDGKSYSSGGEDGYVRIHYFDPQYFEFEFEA
UniProt P60228: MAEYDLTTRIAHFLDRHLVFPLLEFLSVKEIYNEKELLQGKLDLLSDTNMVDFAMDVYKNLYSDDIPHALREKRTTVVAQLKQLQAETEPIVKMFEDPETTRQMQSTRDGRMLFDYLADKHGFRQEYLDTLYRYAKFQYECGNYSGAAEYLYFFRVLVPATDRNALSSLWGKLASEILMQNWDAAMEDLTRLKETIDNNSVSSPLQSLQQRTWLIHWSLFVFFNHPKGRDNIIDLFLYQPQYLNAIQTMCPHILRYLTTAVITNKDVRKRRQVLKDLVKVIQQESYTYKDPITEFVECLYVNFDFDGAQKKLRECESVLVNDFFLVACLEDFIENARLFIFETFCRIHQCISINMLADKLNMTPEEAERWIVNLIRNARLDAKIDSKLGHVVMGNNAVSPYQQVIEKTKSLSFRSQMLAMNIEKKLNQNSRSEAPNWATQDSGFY

| binding | Substance |
| --- | --- |
| binds | eIF3i (from UniProt Q13347 1-325) |
| binds | eIF3e (from UniProt P60228 1-445) |

From PMC10795463
